# Data from the supplement of paper PMC8728848.
# Some of the results follow.
# B1: cFel (Cyprinus carpio), P68512 (protein)
# chain: LDCTVIDGNLKQIDAGSGSVVGVNNLNETFVLIDNVFTKISGSLKHFSVGPAGQLGVNTANNIFKYQSGGFVQLAGLLKQVDAGGDQIIAGVNMYDDIYCLNMDANNKWPSSNTPWVQINGKLKYYSCGPYSCWGVNSNDQIFIMKDVSSNVCSGSGSFINIPGLLSMIEVATDGSVFGVNSQGNLYQRTGVTRSKPDGTDWISMVACPNGHKHVSFDLGVLWLVCVDGSIRKCILTD
# What was measured:
# Experiment in all cases: glycan array binding signal (z-score within array); higher = stronger binding
# Conditions in all cases: glycan notation: IUPAC condensed, linker removed
# [1] = target: Neu5Ac(a2-3)Gal(b1-3)GlcNAc(b1-6)GalNAc
# Outline: (§1)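 Negative Z-scores can be read as non-binding. The Z-score is calculated within each array and then averaged across arrays of one protein sequence at different concentrations or buffers and across linkers. Arrays, 3228 in all, were curated from the Consortium for Functional Glycomics database and kept only where the protein sequence was available.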
# [2] = target: Neu5Ac(a2-3)Gal(b1-3)GlcNAc6S
# Outline: as §1
# [3] = target: Neu5Ac(a2-3)Gal(b1-3)[Fuc(a1-4)]GlcNAc
# Outline: as §1
# [4] = target: Neu5Ac(a2-3)Gal(b1-3)[Fuc(a1-4)]GlcNAc(b1-3)Gal(b1-3)[Fuc(a1-4)]GlcNAc
# Outline: as §1
# [5] = target: Neu5Ac(a2-3)Gal(b1-3)[Fuc(a1-4)]GlcNAc(b1-3)Gal(b1-4)[Fuc(a1-3)]GlcNAc
# Outline: as §1
# [6] = target: Neu5Ac(a2-3)Gal(b1-3)[GlcNAc(b1-6)]GalNAc
# Outline: as §1
# [7] = target: Neu5Ac(a2-3)Gal(b1-3)[Neu5Ac(a2-6)]GalNAc
# Outline: as §1
# [8] = target: Neu5Ac(a2-3)Gal(b1-3)[Neu5Ac(a2-6)]GlcNAc(b1-3)[Fuc(a1-3)[Gal(b1-4)]GlcNAc(b1-6)]Gal(b1-4)Glc
# Outline: as §1
# [9] = target: Neu5Ac(a2-3)Gal(b1-3)]Neu5Ac(a2-3)Gal(b1-4)]GlcNAc
# Outline: as §1
# [10] = target: Neu5Ac(a2-3)Gal(b1-4)Glc
# Outline: as §1
# [11] = target: Neu5Ac(a2-3)Gal(b1-4)GlcNAc
# Outline: as §1
# [12] = target: Neu5Ac(a2-3)Gal(b1-4)GlcNAc(b1-2)Man
# Outline: as §1
# [13] = target: Neu5Ac(a2-3)Gal(b1-4)GlcNAc(b1-2)Man(a1-3)[GlcNAc(b1-4)][Neu5Ac(a2-3)Gal(b1-4)GlcNAc(b1-2)Man(a1-6)]Man(b1-4)GlcNAc(b1-4)GlcNAc
# Outline: as §1
# [14] = target: Neu5Ac(a2-3)Gal(b1-4)GlcNAc(b1-2)Man(a1-3)[Neu5Ac(a2-3)Gal(b1-4)GlcNAc(b1-2)Man(a1-6)]Man(b1-4)GlcNAc(b1-4)GlcNAc
# Outline: as §1
# [15] = target: Neu5Ac(a2-3)Gal(b1-4)GlcNAc(b1-2)Man(a1-3)[Neu5Ac(a2-3)Gal(b1-4)GlcNAc(b1-2)Man(a1-6)]Man(b1-4)GlcNAc(b1-4)[Fuc(a1-6)]GlcNAc
# Outline: as §1
# [16] = target: Neu5Ac(a2-3)Gal(b1-4)GlcNAc(b1-2)Man(a1-3)[Neu5Ac(a2-6)Gal(b1-4)GlcNAc(b1-2)Man(a1-6)]Man(b1-4)GlcNAc(b1-4)GlcNAc
# Outline: as §1
# [17] = target: Neu5Ac(a2-3)Gal(b1-4)GlcNAc(b1-2)[Neu5Ac(a2-3)Gal(b1-4)GlcNAc(b1-4)]Man(a1-3)[GlcNAc(b1-4)][Neu5Ac(a2-3)Gal(b1-4)GlcNAc(b1-2)[Neu5Ac(a2-3)Gal(b1-4)GlcNAc(b1-6)]Man(a1-6)]Man(b1-4)GlcNAc(b1-4)GlcNAc
# Outline: as §1
# [18] = target: Neu5Ac(a2-3)Gal(b1-4)GlcNAc(b1-2)[Neu5Ac(a2-3)Gal(b1-4)GlcNAc(b1-4)]Man(a1-3)[GlcNAc(b1-4)][Neu5Ac(a2-3)Gal(b1-4)GlcNAc(b1-4)Man(a1-6)]Man(b1-4)GlcNAc(b1-4)GlcNAc
# Outline: as §1
# [19] = target: Neu5Ac(a2-3)Gal(b1-4)GlcNAc(b1-2)[Neu5Ac(a2-3)Gal(b1-4)GlcNAc(b1-6)]Man(a1-6)[Neu5Ac(a2-3)Gal(b1-4)GlcNAc(b1-2)Man(a1-3)][GlcNAc(b1-4)]Man(b1-4)GlcNAc(b1-4)GlcNAc
# Outline: as §1
# [20] = target: Neu5Ac(a2-3)Gal(b1-4)GlcNAc(b1-3)Gal
# Outline: as §1
# [21] = target: Neu5Ac(a2-3)Gal(b1-4)GlcNAc(b1-3)Gal(b1-3)GlcNAc
# Outline: as §1
# [22] = target: Neu5Ac(a2-3)Gal(b1-4)GlcNAc(b1-3)Gal(b1-4)GlcNAc
# Outline: as §1
# [23] = target: Neu5Ac(a2-3)Gal(b1-4)GlcNAc(b1-3)Gal(b1-4)GlcNAc(b1-2)Man(a1-3)[Neu5Ac(a2-3)Gal(b1-4)GlcNAc(b1-3)Gal(b1-4)GlcNAc(b1-2)Man(a1-6)]Man(b1-4)GlcNAc(b1-4)GlcNAc
# Outline: as §1
# [24] = target: Neu5Ac(a2-3)Gal(b1-4)GlcNAc(b1-3)Gal(b1-4)GlcNAc(b1-3)Gal(b1-4)GlcNAc
# Outline: as §1
# [25] = target: Neu5Ac(a2-3)Gal(b1-4)GlcNAc(b1-3)Gal(b1-4)GlcNAc(b1-3)Gal(b1-4)GlcNAc(b1-2)Man(a1-3)[Neu5Ac(a2-3)Gal(b1-4)GlcNAc(b1-3)Gal(b1-4)GlcNAc(b1-3)Gal(b1-4)GlcNAc(b1-2)Man(a1-6)]GalNAc
# Outline: as §1
# [26] = target: Neu5Ac(a2-3)Gal(b1-4)GlcNAc(b1-3)Gal(b1-4)GlcNAc(b1-3)GalNAc
# Outline: as §1
# [27] = target: Neu5Ac(a2-3)Gal(b1-4)GlcNAc(b1-3)Gal(b1-4)GlcNAc(b1-3)[Neu5Ac(a2-3)Gal(b1-4)GlcNAc(b1-3)Gal(b1-4)GlcNAc(b1-6)]GalNAc
# Outline: as §1
# [28] = target: Neu5Ac(a2-3)Gal(b1-4)GlcNAc(b1-3)Gal(b1-4)GlcNAc(b1-6)[Gal(b1-3)]GalNAc
# Outline: as §1
# [29] = target: Neu5Ac(a2-3)Gal(b1-4)GlcNAc(b1-3)Gal(b1-4)[Fuc(a1-3)]GlcNAc
# Outline: as §1
# [30] = target: Neu5Ac(a2-3)Gal(b1-4)GlcNAc(b1-3)GalNAc
# Outline: as §1
# [31] = target: Neu5Ac(a2-3)Gal(b1-4)GlcNAc(b1-3)[Neu5Ac(a2-3)Gal(b1-4)GlcNAc(b1-6)]GalNAc
# Outline: as §1
# [32] = target: Neu5Ac(a2-3)Gal(b1-4)GlcNAc(b1-6)GalNAc
# Outline: as §1
# [33] = target: Neu5Ac(a2-3)Gal(b1-4)GlcNAc(b1-6)[Gal(b1-3)]GalNAc
# Outline: as §1
# [34] = target: Neu5Ac(a2-3)Gal(b1-4)GlcNAc(b1-6)[Neu5Ac(a2-3)Gal(b1-3)]GalNAc
# Outline: as §1
# [35] = target: Neu5Ac(a2-3)Gal(b1-4)GlcNAc6S
# Outline: as §1
# [36] = target: Neu5Ac(a2-3)Gal(b1-4)[Fuc(a1-3)]GlcNAc
# Outline: as §1
# [37] = target: Neu5Ac(a2-3)Gal(b1-4)[Fuc(a1-3)]GlcNAc(b1-2)Man
# Outline: as §1
# [38] = target: Neu5Ac(a2-3)Gal(b1-4)[Fuc(a1-3)]GlcNAc(b1-3)Gal
# Outline: as §1
# [39] = target: Neu5Ac(a2-3)Gal(b1-4)[Fuc(a1-3)]GlcNAc(b1-3)Gal(b1-4)GlcNAc
# Outline: as §1
# [40] = target: Neu5Ac(a2-3)Gal(b1-4)[Fuc(a1-3)]GlcNAc(b1-3)Gal(b1-4)[Fuc(a1-3)]GlcNAc(b1-3)Gal(b1-4)[Fuc(a1-3)]GlcNAc
# Outline: as §1
# [41] = target: Neu5Ac(a2-3)Gal(b1-4)[Fuc(a1-3)]GlcNAc(b1-3)GalNAc
# Outline: as §1
# [42] = target: Neu5Ac(a2-3)Gal(b1-4)[Fuc(a1-3)]GlcNAc(b1-6)[Gal(b1-3)]GalNAc
# Outline: as §1
# [43] = target: Neu5Ac(a2-3)Gal(b1-4)[Fuc(a1-3)]GlcNAc(b1-6)[Neu5Ac(a2-3)Gal(b1-3)]GalNAc
# Outline: as §1
# [44] = target: Neu5Ac(a2-3)Gal(b1-4)[Fuc(a1-3)]GlcNAc6S
# Outline: as §1
# [45] = target: Neu5Ac(a2-3)Gal6S(b1-4)GlcNAc
# Outline: as §1
binder,measurement,setting,value
B1,glycan array binding signal (z-score),[1],0.945
same,glycan array binding signal (z-score),[2],-0.503
same,glycan array binding signal (z-score),[3],0.133
same,glycan array binding signal (z-score),[4],-0.15
same,glycan array binding signal (z-score),[5],-0.196
same,glycan array binding signal (z-score),[6],0.319
same,glycan array binding signal (z-score),[7],0.018
same,glycan array binding signal (z-score),[8],-0.734
same,glycan array binding signal (z-score),[9],-0.915
same,glycan array binding signal (z-score),[10],-0.551
same,glycan array binding signal (z-score),[11],-0.785
same,glycan array binding signal (z-score),[12],0.574
same,glycan array binding signal (z-score),[13],3.12
same,glycan array binding signal (z-score),[14],0.925
same,glycan array binding signal (z-score),[15],0.815
same,glycan array binding signal (z-score),[16],-1.17
same,glycan array binding signal (z-score),[17],0.562
same,glycan array binding signal (z-score),[18],-0.578
same,glycan array binding signal (z-score),[19],1.45
same,glycan array binding signal (z-score),[20],-0.498
same,glycan array binding signal (z-score),[21],-0.038
same,glycan array binding signal (z-score),[22],-0.339
same,glycan array binding signal (z-score),[23],-0.134
same,glycan array binding signal (z-score),[24],0.322
same,glycan array binding signal (z-score),[25],-1.27
same,glycan array binding signal (z-score),[26],-0.912
same,glycan array binding signal (z-score),[27],-0.999
same,glycan array binding signal (z-score),[28],-0.862
same,glycan array binding signal (z-score),[29],0.401
same,glycan array binding signal (z-score),[30],-1.64
same,glycan array binding signal (z-score),[31],-0.53
same,glycan array binding signal (z-score),[32],-0.95
same,glycan array binding signal (z-score),[33],0.62
same,glycan array binding signal (z-score),[34],-0.131
same,glycan array binding signal (z-score),[35],-0.931
same,glycan array binding signal (z-score),[36],1.11
same,glycan array binding signal (z-score),[37],-0.405
same,glycan array binding signal (z-score),[38],-1.52
same,glycan array binding signal (z-score),[39],-1.16
same,glycan array binding signal (z-score),[40],-1.09
same,glycan array binding signal (z-score),[41],0.437
same,glycan array binding signal (z-score),[42],0.428
same,glycan array binding signal (z-score),[43],1.44
same,glycan array binding signal (z-score),[44],-1.29
same,glycan array binding signal (z-score),[45],1.71

# Reprinted at random: 4 records from the list.
binder,measurement,setting,value
B1,glycan array binding signal (z-score),[16],-1.17
same,glycan array binding signal (z-score),[13],3.12
same,glycan array binding signal (z-score),[21],-0.038
same,glycan array binding signal (z-score),[9],-0.915
